This is an account of results in publication PMC7244511, “Phosphoproteomics identifies dual-site phosphorylation in an extended basophilic motif regulating FILIP1-mediated degradation of filamin-C” (Communications Biology, 2020).

The chains behind the UniProt entries cited, without tags or fusion partners. Where a name states a change or a piece, a line headed by the entry shows the natural chain unless it says otherwise.
UniProt Q14315: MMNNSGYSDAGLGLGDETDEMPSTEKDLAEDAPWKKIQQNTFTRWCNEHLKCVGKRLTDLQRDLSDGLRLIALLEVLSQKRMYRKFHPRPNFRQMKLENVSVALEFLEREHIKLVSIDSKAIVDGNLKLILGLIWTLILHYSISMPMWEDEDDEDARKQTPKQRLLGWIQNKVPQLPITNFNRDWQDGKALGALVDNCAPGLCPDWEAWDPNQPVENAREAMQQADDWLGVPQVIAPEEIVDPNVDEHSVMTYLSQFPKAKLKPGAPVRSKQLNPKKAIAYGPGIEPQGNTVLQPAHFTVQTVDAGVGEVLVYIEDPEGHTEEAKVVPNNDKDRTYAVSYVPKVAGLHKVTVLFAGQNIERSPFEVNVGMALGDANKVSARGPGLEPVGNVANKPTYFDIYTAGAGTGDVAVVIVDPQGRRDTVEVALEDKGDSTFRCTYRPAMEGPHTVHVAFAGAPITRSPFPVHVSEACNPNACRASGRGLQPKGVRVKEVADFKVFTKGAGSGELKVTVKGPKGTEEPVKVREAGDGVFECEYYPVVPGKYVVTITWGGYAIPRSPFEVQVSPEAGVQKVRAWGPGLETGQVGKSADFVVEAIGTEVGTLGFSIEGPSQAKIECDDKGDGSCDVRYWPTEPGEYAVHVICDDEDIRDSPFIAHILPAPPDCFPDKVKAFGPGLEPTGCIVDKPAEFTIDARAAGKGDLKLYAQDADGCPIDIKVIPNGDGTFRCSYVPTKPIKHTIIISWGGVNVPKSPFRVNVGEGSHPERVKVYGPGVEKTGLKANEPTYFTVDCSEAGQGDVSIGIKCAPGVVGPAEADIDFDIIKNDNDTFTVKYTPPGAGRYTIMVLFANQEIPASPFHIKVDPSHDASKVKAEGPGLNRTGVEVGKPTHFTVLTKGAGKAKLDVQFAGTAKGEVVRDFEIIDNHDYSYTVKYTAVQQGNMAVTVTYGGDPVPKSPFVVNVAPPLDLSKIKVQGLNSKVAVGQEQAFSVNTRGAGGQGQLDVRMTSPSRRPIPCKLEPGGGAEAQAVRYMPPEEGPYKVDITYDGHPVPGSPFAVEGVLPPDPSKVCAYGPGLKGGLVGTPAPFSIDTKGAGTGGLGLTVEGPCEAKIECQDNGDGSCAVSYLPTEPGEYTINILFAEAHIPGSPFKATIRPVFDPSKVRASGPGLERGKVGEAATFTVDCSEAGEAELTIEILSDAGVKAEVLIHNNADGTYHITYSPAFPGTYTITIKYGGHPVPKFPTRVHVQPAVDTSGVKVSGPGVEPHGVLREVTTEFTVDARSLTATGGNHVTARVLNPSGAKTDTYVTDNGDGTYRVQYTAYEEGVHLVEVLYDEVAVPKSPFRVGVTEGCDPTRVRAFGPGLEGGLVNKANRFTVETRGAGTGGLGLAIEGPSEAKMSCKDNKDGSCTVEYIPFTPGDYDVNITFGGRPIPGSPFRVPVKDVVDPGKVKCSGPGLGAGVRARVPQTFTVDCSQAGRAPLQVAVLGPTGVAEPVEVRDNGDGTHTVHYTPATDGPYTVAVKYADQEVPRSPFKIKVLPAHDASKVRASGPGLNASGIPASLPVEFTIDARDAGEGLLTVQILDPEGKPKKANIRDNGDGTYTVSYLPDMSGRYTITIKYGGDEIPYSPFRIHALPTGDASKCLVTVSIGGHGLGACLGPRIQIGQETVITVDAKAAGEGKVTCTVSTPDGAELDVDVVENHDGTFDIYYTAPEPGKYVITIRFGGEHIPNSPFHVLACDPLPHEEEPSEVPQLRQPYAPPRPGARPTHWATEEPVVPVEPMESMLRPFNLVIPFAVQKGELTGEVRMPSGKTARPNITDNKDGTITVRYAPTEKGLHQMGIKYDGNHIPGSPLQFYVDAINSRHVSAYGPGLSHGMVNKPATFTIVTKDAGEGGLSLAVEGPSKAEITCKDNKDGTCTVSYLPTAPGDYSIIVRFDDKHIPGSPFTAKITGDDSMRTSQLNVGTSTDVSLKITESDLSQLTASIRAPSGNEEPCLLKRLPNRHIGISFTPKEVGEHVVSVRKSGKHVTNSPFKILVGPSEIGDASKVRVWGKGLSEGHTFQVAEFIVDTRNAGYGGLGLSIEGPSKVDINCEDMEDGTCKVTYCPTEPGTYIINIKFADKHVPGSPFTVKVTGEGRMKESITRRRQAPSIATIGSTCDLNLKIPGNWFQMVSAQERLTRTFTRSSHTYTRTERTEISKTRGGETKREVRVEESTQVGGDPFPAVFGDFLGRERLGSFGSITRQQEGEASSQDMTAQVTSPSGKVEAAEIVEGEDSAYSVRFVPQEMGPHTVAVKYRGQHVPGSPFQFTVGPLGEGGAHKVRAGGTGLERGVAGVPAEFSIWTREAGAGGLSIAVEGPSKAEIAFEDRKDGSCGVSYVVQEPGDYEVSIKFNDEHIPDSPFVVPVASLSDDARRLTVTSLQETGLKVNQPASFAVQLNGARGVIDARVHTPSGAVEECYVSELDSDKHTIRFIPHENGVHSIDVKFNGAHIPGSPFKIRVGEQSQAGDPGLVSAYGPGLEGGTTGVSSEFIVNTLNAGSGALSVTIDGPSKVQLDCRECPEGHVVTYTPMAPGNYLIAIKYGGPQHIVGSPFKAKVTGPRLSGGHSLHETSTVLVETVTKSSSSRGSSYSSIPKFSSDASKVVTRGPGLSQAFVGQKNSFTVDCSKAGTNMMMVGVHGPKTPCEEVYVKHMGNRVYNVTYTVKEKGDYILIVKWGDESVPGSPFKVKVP
UniProt Q9JLV1: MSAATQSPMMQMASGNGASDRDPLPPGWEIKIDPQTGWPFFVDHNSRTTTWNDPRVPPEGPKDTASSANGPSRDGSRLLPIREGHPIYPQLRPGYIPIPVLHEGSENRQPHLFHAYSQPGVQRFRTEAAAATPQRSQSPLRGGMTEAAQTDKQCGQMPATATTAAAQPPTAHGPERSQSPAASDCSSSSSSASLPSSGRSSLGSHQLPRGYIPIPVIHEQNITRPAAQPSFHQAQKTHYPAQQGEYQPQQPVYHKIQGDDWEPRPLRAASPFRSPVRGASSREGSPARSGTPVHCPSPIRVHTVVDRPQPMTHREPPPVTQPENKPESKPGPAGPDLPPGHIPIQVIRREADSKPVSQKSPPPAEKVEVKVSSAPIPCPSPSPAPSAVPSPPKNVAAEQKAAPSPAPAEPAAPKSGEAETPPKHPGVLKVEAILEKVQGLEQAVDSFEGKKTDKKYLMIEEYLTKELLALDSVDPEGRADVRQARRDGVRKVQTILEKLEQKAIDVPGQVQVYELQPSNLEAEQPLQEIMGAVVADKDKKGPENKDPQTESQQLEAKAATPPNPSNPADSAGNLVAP

The target in the test is Myc-tagged FLNc d18–21 WT (expressed in C2 cells) (human) (UniProt Q14315). Briefly: co-IP; C2 cells transfected with Myc-FLNc d18–21 WT, AA or DD with or without HA-FILIP1, 6 h 10 µM MG-132 or DMSO; Myc-Dynabeads from modified RIPA lysate; immunoblot. In general terms: A western blot detects proteins with antibodies after separation by electrophoresis.

These are yes or no findings as the source states them, for the method shown. In cells and extracts the contact can be indirect. Binding calls can cover weak binding; strength is not graded here.

For the substance “Bcl-2-associated athanogene 3 (Bag3) (from UniProt Q9JLV1 1-577)”, the binding entry is listed as “binds”.
